Laboratory results taken from patent US20160175318A1, “COMPOSITIONS COMPRISING ANTIBACTERIAL AGENT AND TAZOBACTAM” (WOCKHARDT LIMITED, priority 2013, published 2016).
At least one read-out could not be matched to a standard name with certainty.

Tested on: E. coli M50
Test: MIC by agar dilution (CLSI) against highly resistant ESBL strain
Type: cell-based
Conditions: Tazobactam 0 mcg (antibiotic alone)
Method: The results on activity of cefepime and other cephalosporin antibacterial agents in combination with tazobactam against highly resistant ESBL strains are given Table 1. In a typical study, overnight grown bacterial cultures were diluted appropriately and inoculated on the agar media containing doubling dilutions of the antibiotic. Observation for growth or no growth was performed after 16-20 h of incubation at 35±2° C. in ambient air. The overall procedure was performed as per Clinical and Laboratory Standards Institute (CLSI) recommendations. This experimental was followed for Examples 2-4 and 6 below (Table 2-4 and 7).

`CO/N=C(\C(=O)N[C@@H]1C(=O)N2C(C(=O)O)=C(CSc3nc(=O)c(=O)[nH]n3C)CS[C@H]12)c1csc(N)n1` [Ceftriaxone] was tested, and the MIC was >128 µg/mL.
